Experimental data: article PMC7862700
Only a part is listed here, and it is no random draw. For part of these data: At the low end of the ranking, values are background and their order means little. This is one part of the list. For part of these data: Construct or isoform of the protein are uncertain.

Amino acid sequences for entries named in this document (tags omitted). A change or cut given only in a name is not applied to a line headed by its entry.
UniProt P32519: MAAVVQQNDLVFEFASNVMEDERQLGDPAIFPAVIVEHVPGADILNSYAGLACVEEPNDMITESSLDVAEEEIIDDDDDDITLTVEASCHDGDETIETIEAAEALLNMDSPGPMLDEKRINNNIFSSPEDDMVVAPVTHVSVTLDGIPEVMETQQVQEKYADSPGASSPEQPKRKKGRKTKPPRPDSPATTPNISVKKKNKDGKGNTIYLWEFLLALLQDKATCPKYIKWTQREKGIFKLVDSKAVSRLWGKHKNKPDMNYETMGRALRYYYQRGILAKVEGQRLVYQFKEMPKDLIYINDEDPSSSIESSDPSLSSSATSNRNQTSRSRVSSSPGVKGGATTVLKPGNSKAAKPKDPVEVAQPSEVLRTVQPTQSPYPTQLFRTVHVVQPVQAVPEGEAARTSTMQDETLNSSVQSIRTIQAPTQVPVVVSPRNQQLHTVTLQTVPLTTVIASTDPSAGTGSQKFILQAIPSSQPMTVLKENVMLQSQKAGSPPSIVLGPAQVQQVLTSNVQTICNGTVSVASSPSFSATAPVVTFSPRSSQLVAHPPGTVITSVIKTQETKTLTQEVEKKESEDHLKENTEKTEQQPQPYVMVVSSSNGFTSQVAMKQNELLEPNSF
UniProt P50549: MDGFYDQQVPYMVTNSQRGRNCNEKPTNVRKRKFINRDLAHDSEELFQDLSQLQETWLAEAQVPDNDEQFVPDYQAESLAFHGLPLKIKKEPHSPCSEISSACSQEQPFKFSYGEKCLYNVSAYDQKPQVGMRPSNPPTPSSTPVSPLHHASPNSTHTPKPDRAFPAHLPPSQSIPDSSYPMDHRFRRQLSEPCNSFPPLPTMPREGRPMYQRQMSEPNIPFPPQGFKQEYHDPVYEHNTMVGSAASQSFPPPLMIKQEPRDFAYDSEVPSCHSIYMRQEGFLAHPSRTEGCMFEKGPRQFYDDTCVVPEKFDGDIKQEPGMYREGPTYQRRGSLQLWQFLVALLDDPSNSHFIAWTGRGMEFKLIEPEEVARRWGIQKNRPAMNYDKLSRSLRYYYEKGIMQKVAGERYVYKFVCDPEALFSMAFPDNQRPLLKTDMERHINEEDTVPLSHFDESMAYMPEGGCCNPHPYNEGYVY

What was measured:
Test in all cases: DAPPL (digital affinity profiling via proximity ligation, sequencing)
Details in all cases: 10 mM Tris-HCl pH 7.5, 50 mM NaCl, 1 mM DTT, 4% glycerol, room temperature, 30 min; GST-TFs on glutathione beads, 16-mer random dsDNA library, 0.1% …; high values mean tight binding; double strand, one strand shown; scale: fold enrichment (6-mer frequency, TF over GST control)
ERG = target: T1, ERG (UniProt P11308)
T1 sequence: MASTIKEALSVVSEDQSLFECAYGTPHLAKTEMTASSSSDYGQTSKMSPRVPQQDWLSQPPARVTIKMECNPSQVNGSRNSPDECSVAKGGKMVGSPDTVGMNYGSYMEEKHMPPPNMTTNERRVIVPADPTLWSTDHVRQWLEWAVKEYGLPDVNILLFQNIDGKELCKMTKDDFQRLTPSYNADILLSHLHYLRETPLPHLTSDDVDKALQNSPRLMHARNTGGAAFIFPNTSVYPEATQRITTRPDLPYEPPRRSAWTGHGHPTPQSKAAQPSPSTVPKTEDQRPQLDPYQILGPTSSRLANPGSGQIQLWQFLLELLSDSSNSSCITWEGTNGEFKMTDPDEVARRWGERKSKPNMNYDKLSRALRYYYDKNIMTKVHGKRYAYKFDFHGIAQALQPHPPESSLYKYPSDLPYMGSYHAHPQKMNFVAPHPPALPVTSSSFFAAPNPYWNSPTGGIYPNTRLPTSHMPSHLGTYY

ELF1 = ELF1 (UniProt P32519)
ELK4 = target: T2, ELK4 (UniProt P28324-2)
T2 sequence: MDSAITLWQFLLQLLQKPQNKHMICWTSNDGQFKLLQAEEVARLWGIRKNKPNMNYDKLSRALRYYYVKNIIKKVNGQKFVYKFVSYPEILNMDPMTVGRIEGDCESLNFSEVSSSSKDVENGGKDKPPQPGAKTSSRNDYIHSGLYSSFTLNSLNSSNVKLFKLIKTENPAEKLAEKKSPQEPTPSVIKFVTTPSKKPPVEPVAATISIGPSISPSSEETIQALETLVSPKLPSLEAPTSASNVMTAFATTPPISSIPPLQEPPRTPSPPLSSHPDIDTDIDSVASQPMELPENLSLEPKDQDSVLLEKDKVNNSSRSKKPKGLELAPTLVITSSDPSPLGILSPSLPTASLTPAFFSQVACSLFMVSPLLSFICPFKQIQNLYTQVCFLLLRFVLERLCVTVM

ETV4 = target: T3, ETV4 (UniProt P43268)
T3 sequence: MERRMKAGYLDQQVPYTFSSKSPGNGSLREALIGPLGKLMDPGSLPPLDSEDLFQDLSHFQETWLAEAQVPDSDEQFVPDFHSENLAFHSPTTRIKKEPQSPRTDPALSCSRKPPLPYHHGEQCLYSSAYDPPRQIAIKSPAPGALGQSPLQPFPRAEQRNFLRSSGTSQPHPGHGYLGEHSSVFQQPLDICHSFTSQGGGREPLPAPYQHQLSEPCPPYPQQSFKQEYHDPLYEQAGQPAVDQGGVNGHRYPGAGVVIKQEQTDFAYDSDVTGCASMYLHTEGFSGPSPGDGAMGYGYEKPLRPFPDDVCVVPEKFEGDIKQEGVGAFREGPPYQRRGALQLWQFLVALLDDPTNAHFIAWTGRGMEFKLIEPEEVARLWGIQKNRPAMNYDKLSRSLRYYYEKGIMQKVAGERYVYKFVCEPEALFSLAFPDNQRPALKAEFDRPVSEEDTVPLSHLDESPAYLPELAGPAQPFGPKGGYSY

ETV1 = ETV1 (UniProt P50549)
ERF = target: T4, ERF (UniProt P50548)
T4 sequence: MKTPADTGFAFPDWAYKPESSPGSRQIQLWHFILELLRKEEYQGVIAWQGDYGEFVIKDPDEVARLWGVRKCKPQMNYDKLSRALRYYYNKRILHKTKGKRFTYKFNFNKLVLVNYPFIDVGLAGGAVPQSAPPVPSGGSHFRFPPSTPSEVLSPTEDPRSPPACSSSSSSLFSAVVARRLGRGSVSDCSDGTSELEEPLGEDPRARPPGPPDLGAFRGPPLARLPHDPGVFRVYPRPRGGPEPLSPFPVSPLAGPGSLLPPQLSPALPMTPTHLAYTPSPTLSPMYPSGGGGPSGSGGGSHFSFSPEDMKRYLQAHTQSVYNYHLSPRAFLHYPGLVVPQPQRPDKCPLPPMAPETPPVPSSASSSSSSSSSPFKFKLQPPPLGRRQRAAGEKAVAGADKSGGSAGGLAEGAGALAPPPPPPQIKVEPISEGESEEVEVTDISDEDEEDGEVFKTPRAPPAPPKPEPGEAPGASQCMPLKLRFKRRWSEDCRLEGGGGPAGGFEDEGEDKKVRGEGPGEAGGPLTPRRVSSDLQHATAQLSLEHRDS

Sequence GGTAGA has a binding signal (ERG) of 0.691, a binding signal (ELF1) of 0.671 and a binding signal (ELK4) of 0.707. It also gave a binding signal (ETV4) of 0.629, a binding signal (ETV1) of 0.619 and a binding signal (ERF) of 0.737.

Work on AGGTAG yielded a binding signal (ERG) of 0.673, a binding signal (ELF1) of 0.653 and a binding signal (ELK4) of 0.605. For the same sequence, the binding signal (ETV4) was 0.612, the binding signal (ETV1) was 0.63 and the binding signal (ERF) was 0.583.

Sequence GAGTTA has a binding signal (ERG) of 0.558, a binding signal (ELF1) of 0.585 and a binding signal (ELK4) of 0.597. It also gave a binding signal (ETV4) of 0.619, a binding signal (ETV1) of 0.591 and a binding signal (ERF) of 0.592.

GACAAT showed a binding signal (ERG) of 0.966, a binding signal (ELF1) of 0.947 and a binding signal (ELK4) of 0.907. The binding signal (ETV4) was 0.966, the binding signal (ETV1) was 0.864 and the binding signal (ERF) was 0.991.

With CACCAG the binding signal (ERG) was 0.713, the binding signal (ELF1) was 0.753 and the binding signal (ELK4) was 0.783. The binding signal (ETV4) was 0.759, the binding signal (ETV1) was 0.717 and the binding signal (ERF) was 0.712.

CCAGAG showed a binding signal (ERG) of 0.68, a binding signal (ELF1) of 0.695 and a binding signal (ELK4) of 0.79. For the same sequence, the binding signal (ETV4) was 0.706, the binding signal (ETV1) was 0.682 and the binding signal (ERF) was 0.627.

GTCAGA gave a binding signal (ERG) of 0.619, a binding signal (ELF1) of 0.628 and a binding signal (ELK4) of 0.587. For the same sequence, the binding signal (ETV4) was 0.643, the binding signal (ETV1) was 0.677 and the binding signal (ERF) was 0.639.

Work on GGCGCA yielded a binding signal (ERG) of 0.629, a binding signal (ELF1) of 0.575 and a binding signal (ELK4) of 0.681. It also gave a binding signal (ETV4) of 0.606, a binding signal (ETV1) of 0.574 and a binding signal (ERF) of 0.586.

TAGAGC gave a binding signal (ERG) of 0.711, a binding signal (ELF1) of 0.783 and a binding signal (ELK4) of 0.783. The binding signal (ETV4) was 0.795, the binding signal (ETV1) was 0.755 and the binding signal (ERF) was 0.838.

CGAGGC showed a binding signal (ERG) of 0.688, a binding signal (ELF1) of 0.661 and a binding signal (ELK4) of 0.67. It also gave a binding signal (ETV4) of 0.596, a binding signal (ETV1) of 0.736 and a binding signal (ERF) of 0.709.

With GAGTAA the binding signal (ERG) was 0.556, the binding signal (ELF1) was 0.569 and the binding signal (ELK4) was 0.594. For the same sequence, the binding signal (ETV4) was 0.552, the binding signal (ETV1) was 0.563 and the binding signal (ERF) was 0.568.

In the case of TCGTGT, the binding signal (ERG) is reported as 0.724, the binding signal (ELF1) is reported as 0.754 and the binding signal (ELK4) is reported as 0.79. For the same sequence, the binding signal (ETV4) was 0.76, the binding signal (ETV1) was 0.764 and the binding signal (ERF) was 0.892.

Work on CAGTGA yielded a binding signal (ERG) of 0.356, a binding signal (ELF1) of 0.344 and a binding signal (ELK4) of 0.377. It also gave a binding signal (ETV4) of 0.353, a binding signal (ETV1) of 0.352 and a binding signal (ERF) of 0.367.

For CGGCCG, the binding signal (ERG) was 0.877, the binding signal (ELF1) was 0.834 and the binding signal (ELK4) was 0.958. For the same sequence, the binding signal (ETV4) was 0.926, the binding signal (ETV1) was 0.898 and the binding signal (ERF) was 0.751.

Sequence CAGCGT has a binding signal (ERG) of 0.822, a binding signal (ELF1) of 0.773 and a binding signal (ELK4) of 0.975. It also gave a binding signal (ETV4) of 0.782, a binding signal (ETV1) of 0.84 and a binding signal (ERF) of 0.791.

ACGGTC showed a binding signal (ERG) of 0.702, a binding signal (ELF1) of 0.727 and a binding signal (ELK4) of 0.694. It also gave a binding signal (ETV4) of 0.748, a binding signal (ETV1) of 0.816 and a binding signal (ERF) of 0.812.

Work on ATTGGA yielded a binding signal (ERG) of 0.917, a binding signal (ELF1) of 0.913 and a binding signal (ELK4) of 0.835. It also gave a binding signal (ETV4) of 0.937, a binding signal (ETV1) of 0.872 and a binding signal (ERF) of 0.911.

Work on GGACTA yielded a binding signal (ERG) of 0.84, a binding signal (ELF1) of 0.861 and a binding signal (ELK4) of 0.825. It also gave a binding signal (ETV4) of 0.867, a binding signal (ETV1) of 0.857 and a binding signal (ERF) of 0.848.

GAGGCG was tested, and the binding signal (ERG) was 0.418, the binding signal (ELF1) was 0.384 and the binding signal (ELK4) was 0.41. The binding signal (ETV4) was 0.381, the binding signal (ETV1) was 0.444 and the binding signal (ERF) was 0.372.

GGAGAC gave a binding signal (ERG) of 0.166, a binding signal (ELF1) of 0.148 and a binding signal (ELK4) of 0.136. The binding signal (ETV4) was 0.132, the binding signal (ETV1) was 0.141 and the binding signal (ERF) was 0.152.

GCGAGT gave a binding signal (ERG) of 0.54, a binding signal (ELF1) of 0.573 and a binding signal (ELK4) of 0.541. The binding signal (ETV4) was 0.528, the binding signal (ETV1) was 0.593 and the binding signal (ERF) was 0.577.

For CGTCGG, the binding signal (ERG) was 0.457, the binding signal (ELF1) was 0.435 and the binding signal (ELK4) was 0.349. For the same sequence, the binding signal (ETV4) was 0.403, the binding signal (ETV1) was 0.45 and the binding signal (ERF) was 0.398.

TATCGG gave a binding signal (ERG) of 0.832, a binding signal (ELF1) of 0.811 and a binding signal (ELK4) of 0.904. For the same sequence, the binding signal (ETV4) was 0.748, the binding signal (ETV1) was 0.791 and the binding signal (ERF) was 0.895.

For ACCAGT, the binding signal (ERG) was 0.511, the binding signal (ELF1) was 0.493 and the binding signal (ELK4) was 0.452. The binding signal (ETV4) was 0.478, the binding signal (ETV1) was 0.445 and the binding signal (ERF) was 0.457.

Work on ATCGGT yielded a binding signal (ERG) of 0.696, a binding signal (ELF1) of 0.737 and a binding signal (ELK4) of 0.776. It also gave a binding signal (ETV4) of 0.732, a binding signal (ETV1) of 0.638 and a binding signal (ERF) of 0.731.

With ATCGTG the binding signal (ERG) was 0.416, the binding signal (ELF1) was 0.408 and the binding signal (ELK4) was 0.491. The binding signal (ETV4) was 0.38, the binding signal (ETV1) was 0.355 and the binding signal (ERF) was 0.419.

AGTGAG showed a binding signal (ERG) of 0.275, a binding signal (ELF1) of 0.235 and a binding signal (ELK4) of 0.238. The binding signal (ETV4) was 0.228, the binding signal (ETV1) was 0.256 and the binding signal (ERF) was 0.278.
